Reference: PubChem BioAssay AID1159593 (NIAID, 2016)

- Aim: 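Canonical TLR pathway genes needed for NF-kappaB activation by LPS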
- Cells: RAW264.7 macrophages of mouse, with reporters for p65 (GFP) and the Tnf promoter (mCherry)
- Reagent: single siRNA against mouse genes
- Time to read-out: 48 to 72 hours after siRNA transfection, then LPS for 40 min
- Treatment: LPS (Salmonella minnesota R595) for 40 min before fixation; dose not given
- Detection: 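High-content imaging of GFP-p65 moving into nuclei after 40 min LPS, plate median/MAD normalised, replicate mean of robust z-score relative to negative controls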
- Scale: p65 translocation z-score: higher = more nuclear NF-kappaB p65 after LPS
- Hit rule: 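Activity score grows with absolute z: 25 beyond 1, 50 beyond 1.5, 75 beyond 2, 100 beyond 2.5; active calls here sit at about z 1.5 or more either way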
- Meaning of the calls: active = changed p65 translocation (either direction); inactive = no clear change
Here is one part, drawn at random, of 756 reagents tested. Of all reagents, 137 (18%) were called active. 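Active means p65 translocation went either up or down; genes were judged on the median of six siRNAs, not single siRNAs.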 Unmarked entries are inactive. Reagents against one gene are numbered here. Reagent sequences are not shown. Not given: the amount of reagent.

How did the screen score Il1b #1?
p65 translocation z-score: 0.425

How did the screen score Il1b #2?
p65 translocation z-score: -0.342

With Il1b #3, what does the deposit list?
p65 translocation z-score: 0.161

How did the screen score Il1b #4?
p65 translocation z-score: 1.82 (active)

Which result is listed for Il1b #5?
p65 translocation z-score: -0.385

With Il1b #6, what was measured?
p65 translocation z-score: -0.573

For Il12a #1, what was measured?
p65 translocation z-score: -0.272

Which result is listed for Il12a #2?
p65 translocation z-score: -0.306

Which result is listed for Il12a #3?
p65 translocation z-score: -0.0342

Which result is listed for Il12a #4?
p65 translocation z-score: 0.0302

Which result is listed for Il12a #5?
p65 translocation z-score: -0.875

For Il12a #6, how do the results read?
p65 translocation z-score: 0.448

For Pik3cd #1, what does the deposit list?
p65 translocation z-score: 0.0183

How did the screen score Pik3cd #2?
p65 translocation z-score: 0.486

For Pik3cd #3, what was measured?
p65 translocation z-score: -0.105

What did the screen give for Pik3cd #4?
p65 translocation z-score: 0.611

With Pik3cd #5, what was measured?
p65 translocation z-score: -1.29

Which result is listed for Pik3cd #6?
p65 translocation z-score: 1.98 (active)

For Ticam1 #1, what does the deposit list?
p65 translocation z-score: -2.05 (active)

How did the screen score Ticam1 #2?
p65 translocation z-score: -0.351

What did the screen give for Ticam1 #3?
p65 translocation z-score: -0.946

Which result is listed for Ticam1 #4?
p65 translocation z-score: 2.2 (active)

With Ticam1 #5, what was measured?
p65 translocation z-score: 0.0876

Which result is listed for Ticam1 #6?
p65 translocation z-score: -0.615

Which result is listed for Peli1 #1?
p65 translocation z-score: -0.385

With Peli1 #2, how do the results read?
p65 translocation z-score: -0.571

How did the screen score Peli1 #3?
p65 translocation z-score: -0.56

For Peli1 #4, how do the results read?
p65 translocation z-score: 0.786

With Peli1 #5, what was measured?
p65 translocation z-score: -1.6 (active)

For Peli1 #6, how do the results read?
p65 translocation z-score: -0.84

What is on record for Cd14 #1?
p65 translocation z-score: -2.24 (active)

Which result is listed for Cd14 #2?
p65 translocation z-score: -2.38 (active)

For Cd14 #3, how do the results read?
p65 translocation z-score: -1.82 (active)

Which result is listed for Cd14 #4?
p65 translocation z-score: -1.32

For Cd14 #5, what does the deposit list?
p65 translocation z-score: -1.62 (active)

With Cd14 #6, what does the deposit list?
p65 translocation z-score: -0.484

As entered above.
Entry of Ticam1 #6 in “p65 translocation z-score”: -0.615
For “p65 translocation z-score”, Il12a #4 has 0.0302
Pik3cd #3, p65 translocation z-score = -0.105
Result for Peli1 #1 under “p65 translocation z-score”: -0.385
Result for Ticam1 #2 under “p65 translocation z-score”: -0.351
Il1b #3, p65 translocation z-score = 0.161

Further entries follow.
For Ptk2b #1, what does the deposit list?
p65 translocation z-score: 1.05

With Ptk2b #2, what does the deposit list?
p65 translocation z-score: 1.15

Which result is listed for Ptk2b #3?
p65 translocation z-score: -0.126

How did the screen score Ptk2b #4?
p65 translocation z-score: -0.468

For Ptk2b #5, what does the deposit list?
p65 translocation z-score: -0.196

What did the screen give for Ptk2b #6?
p65 translocation z-score: -0.14

For Il6 #1, what was measured?
p65 translocation z-score: -0.222

What is on record for Il6 #2?
p65 translocation z-score: 0.155

Which result is listed for Il6 #3?
p65 translocation z-score: 0.174

Which result is listed for Il6 #4?
p65 translocation z-score: -1.02

With Il6 #5, what was measured?
p65 translocation z-score: 0.465

What did the screen give for Il6 #6?
p65 translocation z-score: -0.125

What is on record for Mapk11 #1?
p65 translocation z-score: 0.841

For Mapk11 #2, what was measured?
p65 translocation z-score: -0.353

Which result is listed for Mapk11 #3?
p65 translocation z-score: 1.03

How did the screen score Mapk11 #4?
p65 translocation z-score: -0.555

What did the screen give for Mapk11 #5?
p65 translocation z-score: -0.0178

For Mapk11 #6, what was measured?
p65 translocation z-score: 0.857

Which result is listed for Pik3r1 #1?
p65 translocation z-score: -1.68 (active)

With Pik3r1 #2, what was measured?
p65 translocation z-score: -1.25

What is on record for Pik3r1 #3?
p65 translocation z-score: 0.626

How did the screen score Pik3r1 #4?
p65 translocation z-score: -0.0679

For Pik3r1 #5, what was measured?
p65 translocation z-score: -1.41

What did the screen give for Pik3r1 #6?
p65 translocation z-score: -1.42
